Results published in US10028958B2, “Methods of treating cancer with a combination of selected MEK1/2 and AXL inhibitors” (Massachusetts Institute of Technology, priority 2014, dated 2018).
At least one structure is not confirmed: it was looked up by name or label, or the drawing left a doubt.

Test system: ovarian carcinoma and malignant melanoma
Assay: Combination drug treatment cell growth assay, 72 h
Assay type: cell-based
Procedure: Drugs were purchased from Selleck Chem (Houston, Tex.) and LC Labs (Woburn, Mass.). Cells were grown as described by manufacturers' guidelines. […] For cell growth assays, 5000 cells were plated per well in a 96-well plate, treated with drugs the following day, and counted at 72 h according to either a rezasurin assay (PrestoBlue; Life Technologies, Grand Island, N.Y.) using manufacturer's guidelines, or by flow cytometry following trypsinization and immediate analysis on an LSR-II (BD Biosciences, San Jose, Calif.).

Row | SMILES | efficacy of combination treatment with MAPK and RTK inhibitors (cell count)
1 | Cn1cnc2c(F)c(Nc3ccc(Br)cc3Cl)c(C(=O)NOCCO)cc21 [selumetinib] | effective
2 | CC(=O)Nc1cccc(-n2c(=O)n(C3CC3)c(=O)c3c(Nc4ccc(I)cc4F)n(C)c(=O)c(C)c32)c1 [trametinib] | effective
